Article PMC11602133
Construct, isoform or probe ends are uncertain for at least one entry.

Amino acid sequences for entries named in this document (tags omitted). A change or cut given only in a name is not applied to a line headed by its entry.
UniProt P17839: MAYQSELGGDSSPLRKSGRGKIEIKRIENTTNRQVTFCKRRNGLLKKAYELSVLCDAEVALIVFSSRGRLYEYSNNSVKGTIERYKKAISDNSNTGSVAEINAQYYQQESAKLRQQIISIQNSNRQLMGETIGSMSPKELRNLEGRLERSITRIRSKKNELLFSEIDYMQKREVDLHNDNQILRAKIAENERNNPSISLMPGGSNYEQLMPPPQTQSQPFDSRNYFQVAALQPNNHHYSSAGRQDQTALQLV
UniProt O64645: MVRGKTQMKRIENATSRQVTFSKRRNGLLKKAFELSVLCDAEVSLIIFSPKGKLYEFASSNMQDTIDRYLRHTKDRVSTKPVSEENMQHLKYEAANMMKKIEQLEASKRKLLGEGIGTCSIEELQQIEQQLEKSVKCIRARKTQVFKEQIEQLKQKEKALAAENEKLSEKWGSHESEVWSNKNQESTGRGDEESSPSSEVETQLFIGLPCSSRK
UniProt O22456: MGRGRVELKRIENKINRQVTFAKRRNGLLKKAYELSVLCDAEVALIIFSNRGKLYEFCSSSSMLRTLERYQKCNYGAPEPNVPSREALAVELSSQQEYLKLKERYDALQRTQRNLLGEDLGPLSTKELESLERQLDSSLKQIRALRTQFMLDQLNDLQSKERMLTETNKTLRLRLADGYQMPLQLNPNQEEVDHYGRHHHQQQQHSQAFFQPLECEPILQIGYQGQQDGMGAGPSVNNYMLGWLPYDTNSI

Legend:
Test in all cases: EMSA
[1] = target: AG (Arabidopsis thaliana) (UniProt P17839); conditions: homodimer; EMSA per Smaczniak et al. (ref 17) with minor modifications; in vitro wheat germ TnT proteins; pH and temperature not stated; protein translated in vitro; label: DY-682; probe letters rebuilt from the primers and the genome; part of a longer molecule
[2] = target: SOC1 (Arabidopsis thaliana) (UniProt O64645); conditions: homodimer and homotetramer; EMSA per Smaczniak et al. (ref 17) with minor modifications; in vitro wheat germ TnT proteins; pH and temperature not stated; protein translated in vitro; residues 1-214; label: DY-682; probe letters rebuilt from the primers and the genome; part of a longer molecule
FUL-GFP (F-G) + AG = conditions: size-shifted complex; EMSA per Smaczniak et al. (ref 17) with minor modifications; in vitro wheat germ TnT proteins; pH and temperature not stated; protein translated in vitro; protein details: linker-GFP (C-term); label: DY-682; probe letters rebuilt from the primers and the genome; part of a longer molecule
[3] = test system: FUL-GFP (F-G) + AG + SEP3; conditions: size-shifted complex; EMSA per Smaczniak et al. (ref 17) with minor modifications; in vitro wheat germ TnT proteins; pH and temperature not stated; protein translated in vitro; protein details: linker-GFP (C-term); label: DY-682; probe letters rebuilt from the primers and the genome; part of a longer molecule
AG + SEP3 = conditions: tetramer AG-SEP-AG-SEP; EMSA per Smaczniak et al. (ref 17) with minor modifications; in vitro wheat germ TnT proteins; pH and temperature not stated; protein translated in vitro; label: DY-682; probe letters rebuilt from the primers and the genome; part of a longer molecule
[4] = target: SEP3 (Arabidopsis thaliana) (UniProt O22456); conditions: homodimer; EMSA per Smaczniak et al. (ref 17) with minor modifications; in vitro wheat germ TnT proteins; pH and temperature not stated; protein translated in vitro; label: DY-682; probe letters rebuilt from the primers and the genome; part of a longer molecule

Measured: binding result

AACCATTGTGTTTATTTTGCATATACGGACACGTGTATTTTGTTACCATATTTGGACATTATTGAAACATACATAAATGCCCACTTCCCTCAACAAAGAA (double strand) [SAUR10 probe (probe 1)]
binds: all assays above
